Reference: paper PMC6636010
These are yes or no findings as the source states them, for the method shown. Binding seen in cells or lysates may run through a third protein. Some binding calls cover weakened binding; strength is not graded here.

The chains behind the UniProt entries cited, without tags or fusion partners.
UniProt P17096: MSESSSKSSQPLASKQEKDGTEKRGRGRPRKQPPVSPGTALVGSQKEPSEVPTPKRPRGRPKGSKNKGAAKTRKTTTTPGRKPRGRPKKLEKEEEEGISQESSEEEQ

Molecular target: High Mobility Group A1 (HMGA1) (human (endogenous in MDA-MB-231)) (UniProt P17096)
Assay: co-IP; endogenous proteins; 250 μg MDA-MB-231 lysate with 1 μg α-HMGA1 (α-GFP as negative control) in IP buffer (25 mM Tris/HCl pH 7.4, 0.5% NP40, 125 mM NaCl) O/N at 4 °C, A/G proteins agarose beads 2 h at 4 °C; western blot with α-HMGA1 and α-FOXM1

- binding: binds
B1: Forkhead box M1 (FOXM1) (protein, UniProt Q08050 1-763)
chain: MKTSPRRPLILKRRRLPLPVQNAPSETSEEEPKRSPAQQESNQAEASKEVAESNSCKFPAGIKIINHPTMPNTQVVAIPNNANIHSIITALTAKGKESGSSGPNKFILISCGGAPTQPPGLRPQTQTSYDAKRTEVTLETLGPKPAARDVNLPRPPGALCEQKRETCADGEAAGCTINNSLSNIQWLRKMSSDGLGSRSIKQEMEEKENCHLEQRQVKVEEPSRPSASWQNSVSERPPYSYMAMIQFAINSTERKRMTLKDIYTWIEDHFPYFKHIAKPGWKNSIRHNLSLHDMFVRETSANGKVSFWTIHPSANRYLTLDQVFKPLDPGSPQLPEHLESQQKRPNPELRRNMTIKTELPLGARRKMKPLLPRVSSYLVPIQFPVNQSLVLQPSVKVPLPLAASLMSSELARHSKRVRIAPKVLLAEEGIAPLSSAGPGKEEKLLFGEGFSPLLPVQTIKEEEIQPGEEMPHLARPIKVESPPLEEWPSPAPSFKEESSHSWEDSSQSPTPRPKKSYSGLRSPTRCVSEMLVIQHRERRERSRSRRKQHLLPPCVDEPELLFSEGPSTSRWAAELPFPADSSDPASQLSYSQEVGGPFKTPIKETLPISSTPSKSVLPRTPESWRLTPPAKVGGLDFSPVQTSQGASDPLPDPLGLMDLSTTPLQSAPPLESPQRLLSSEPLDLISVPFGNSSPSDIDVPKPGSPEPQVSGLAANRSLTEGLVLDTMNDSLSKILLDISFPGLDEDPLGPDNINWSQFIPELQ
